The assay is described as follows: qHTS Assay for Lipid Storage Modulators in Drosophila S3 Cells.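 As to cell number change: cells counted by Cell Tracker Red CMTPX staining in the red channel.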 The following applies: BODIPY lipid droplet fluorescence, 18-24 h; for cell number change: measured here: cell count max response, cells fed with added oleic acid. From the text: NIH Molecular Libraries Probe Production Centers Network [MLPCN] NIH Chemical Genomics Center [NCGC] MLPCN Grant: 1 R03 MH085686-01 Assay Submitter (PI): Beller, Mathias; Max-Planck-Institut fur Biophysikalische Chemie NCGC Assay Overview: Storing lipids as a reservoir for energy or the anabolism of elementary metabolites is a common feature of probably all cells and is conserved from bacteria to humans. The universal cellular lipid storage organelle is the so-called lipid storage droplet (LD). Although ubiquitous, LDs share a simple structure composed of a hydrophobic core that harbors the storage lipids, which is shielded by a droplet-specific phospholipid monolayer to which proteins are attached. The current model of LD biogenesis involves an incorporation of the lipid core into the membrane leaflets of the endoplasmic reticulum (ER) followed by a subsequent budding-like maturation of a LD, which ultimately pinches off. Once released, LD volume can increase by localized lipogenesis or fusion of existing droplet. Storage lipids are re-mobilized enzymatically by lipase activity. Lipase regulation in the adipocyte is heavily studied and involves multiple components including catecholamine signaling, the LD-associated proteins Perilipin and comparative gene identification (CGI-58) and at least two lipases named hormone sensitive lipase (HSL) and adipocyte triglyceride lipase (ATGL). LD regulation outside of the adipocyte is poorly understood and only few components are known. However, there is an urgent need to learn more about ectopic fat depots as mislocalized storage of lipids, for example in the liver or muscle, is an eminent health problem associated with insulin resistance or the metabolic syndrome. We developed a laser-scanning cytometer assay to enable 1,536-well screening and combined the results of the small molecules screen with an RNAi database based on lipid storage.
Triacsin C (Sigma-Aldrich T-4540), an inhibitor of long-chain fatty acyl CoA synthetase that blocks synthesis of triglycerides, was used as a positive control for lipid under-storage. A total of 23 nL of compound solution of different concentrations were transferred to the assay plates using a Kalypsys pin tool equipped with a 1,536-pin array containing 10-nL slotted pins (FP1S10, 0.457-mm diameter, 50.8 mm long; V&P Scientific). One microliter of oleic acid (400 uM) was added, and the plate was lidded with stainless steel rubber gasket lined lids containing pinholes. […] Fluorescence was detected by excitation of the fluorophores with a 488-nm laser on an Acumen Explorer (TTP Lab Tech). The total intensity in channel 2 (500-530 nm) reflected lipid droplet accumulation. Cells were detected using channel 3 (575-640 nm) with 5-um width and 100-um depth filters. The ratio of the number of objects in PMT channel 2 over the number of objects in PMT channel 3 was also calculated. Percent activity was computed relative to an internal control (100% inhibited lipid droplet deposition due to the presence of 20 uM Triacsin C), which was added to 32 wells/plate.
Background: qHTS replaces the single test concentration by a dilution series.

The mark [1] stands for this setting: measured here: cell number channel AC50, cells fed with added oleic acid.
Setting [2] is: measured here: lipid fluorescence (Fed channel) AC50, cells fed with added oleic acid.

Experimental findings from PubChem BioAssay AID2685 (National Center for Advancing Translational Sciences (NCATS), 2010) are described below.

A word on the AC50: it is the midpoint of the concentration-response curve, whichever way the signal moves.

Molecules are shown by their SMILES. The list shows a part of the results. These are further read-outs of the screen, such as a control signal, another cell line or another target. No call is given for them. The list favours compounds with an active or inconclusive main result. Words in brackets tell the shape of the fitted curve; partial curves, single points and poor fits give uncertain potencies.

With `Cc1nc(-c2nnc(SCC(=O)Nc3cc(C(F)(F)F)cc(C(F)(F)F)c3)n2C)cs1`, the cell number change is -7.88%.

As for `COc1ccc(N(CC(=O)NCCSc2ccccn2)S(=O)(=O)c2ccccc2)cc1Cl`, the cell number change was -44.9%. Also, the AC50 under setting [1] is 13 µM [falling, partial curve, poor fit].

On to `CCn1cnnc1SCC(=O)c1c(N)n(C2CC2)c(=O)[nH]c1=O`, for which the cell number change turned out to be 6.03%. Under setting [2], the AC50 was 1.46 µM [rising, partial curve, poor fit].

In the case of `O=C(N/N=C/C(Br)=C/c1ccccc1)c1n[nH]c2c1CCC2`, the cell number change is -4.96%.

With `COc1cc(OC)c(NC(=O)CC(C)=O)cc1Cl`, the cell number change was -21.5%. Further, under setting [2], the AC50 was 2.31 µM [falling, full curve].

With `Cc1ccc(OCC(=O)OCC(=O)N2c3ccccc3CC2C)cc1C` (stereo not drawn), the cell number change is -7.9%.

Consider `CC[C@H](C)[C@H](NS(=O)(=O)c1ccc(C)cc1)C(=O)N1CCC(C(=O)N[C@H](C(=O)O)C(C)C)CC1`, for which the cell number change was found to be 30.7%. In addition, under setting [1], the AC50 is 29.1 µM [rising, single point]. Further, under setting [2], the concentration at half-maximal activity (AC50) is 0.651 µM [falling, full curve, poor fit].

In the case of `O=C(NNC(=O)C1C2C=CC(C2)C1C(=O)O)c1ccccc1O` (stereo not drawn), the cell number change was determined as 4.27%. The AC50 under setting [2] was 20.6 µM [rising, partial curve].

Take `Cc1noc(NS(=O)(=O)c2ccc(NC(=O)c3nn(-c4ccccc4)ccc3=O)cc2)c1C`: the cell number change is -8.5%. The AC50 under setting [2] is 29.1 µM [falling, single point].

As for `N#Cc1nc(COc2ccccc2Cl)oc1NCc1cccnc1`, the cell number change is -31.9%. In addition, the AC50 under setting [1] is 0.259 µM [falling, full curve, poor fit].

On to `O=C(CSc1nnc(-c2ccncc2)o1)Nc1cc(F)ccc1F`, for which the cell number change came to 6.97%. Under setting [2], the AC50 was 2.91 µM [rising, partial curve].

In the case of `COC(=O)c1ccc2nc(NC(=O)CCS(=O)(=O)c3ccccc3)sc2c1`, the cell number change stood at 37.5%. The AC50 under setting [1] was 25.9 µM [rising, single point].

In the case of `COCC(=O)N(Cc1ccccc1)c1ccccn1`, the cell number change is -25.7%. The AC50 under setting [1] is 0.651 µM [falling, full curve, poor fit]. Besides, the AC50 under setting [2] was 3.26 µM [falling, full curve].

Regarding `COc1ccccc1-n1c(C)nnc1SCC(=O)Nc1cccc(C(C)=O)c1`, the cell number change was found to be 60.9%. Moreover, the AC50 under setting [1] was 4.11 µM [rising, full curve]. Also, the AC50 under setting [2] is 0.326 µM [rising, full curve].

In the case of `CCN(C(=O)C1CCN(S(=O)(=O)c2cccc3nonc23)CC1)c1ccccc1`, the cell number change was -31.2%. In addition, the AC50 under setting [1] was 2.06 µM [falling, full curve, poor fit]. Also, the AC50 under setting [2] is 0.0231 µM [falling, full curve].

For the compound `COc1ccc(CNC(=O)CCCC(=O)Nc2cccc(Br)c2)cc1`, the cell number change is -25.8%.

With `COc1cccc2cc(C(=O)Nc3ccc(F)cc3)c(=Nc3ccc(C(=O)O)cc3)oc12`, the cell number change was -49%. Moreover, under setting [1], the AC50 was 13 µM [falling, partial curve, poor fit]. Also, under setting [2], the AC50 is 9.2 µM [falling, partial curve].

For `COc1cc(SC)ccc1C(=O)Nc1cccc(S(=O)(=O)NC2=NCCCCC2)c1`, the cell number change was found to be 56.5%.

Turning to `NC(=O)CCc1nc2cc(C(F)(F)F)ccc2n(Cc2ccccc2)c1=O`, the cell number change is 19.3%. Moreover, the AC50 under setting [2] was 0.206 µM [rising, single point].

For `O=c1[nH]cnc2c1C(c1ccc(Cl)cc1)c1c(nc[nH]c1=O)O2`, the cell number change is -19.8%. Besides, the AC50 under setting [1] was 0.0731 µM [falling, full curve, poor fit]. The AC50 under setting [2] is 16.4 µM [rising, partial curve].

For the compound `Cc1csc(SCC(=O)Nc2nccs2)n1`, the cell number change stood at 17.9%.

For the compound `Cc1ccccc1/C=C\c1nc2ccccc2c(=O)n1Cc1ccccc1`, the cell number change was 18.1%. The AC50 under setting [2] was 3.66 µM [rising, full curve].

With `CC(=O)Oc1ccc(C(c2ccc(OC(C)=O)cc2)c2ccccn2)cc1`, the cell number change came to 23.3%. In addition, the AC50 under setting [2] was 16.4 µM [rising, partial curve].

On to `COc1cccc2c1cc1c(=O)n(CC(=O)NCCCN3CCCCC3)nc(C)n12`, for which the cell number change is -13.7%.

Consider `O=C(Nc1ccc2c(c1)oc1ccccc12)c1cccnc1`, for which the AC50 is 0.164 µM [rising, full curve, poor fit] under setting [1] and 29.1 µM [rising, single point] under setting [2].

Consider `COCCN(C(=O)Cn1nnc2ccccc21)C(C(=O)NC1CCCCC1)c1ccc(OC)cc1OC` (stereo not drawn), for which the cell number change was -40.4%. Moreover, the AC50 under setting [1] was 18.4 µM [falling, partial curve]. Further, the AC50 under setting [2] was 18.4 µM [falling, partial curve].

`CNC(=O)c1ccsc1NC(=O)c1sc2ccccc2c1Cl`: the AC50 under setting [2] is 0.461 µM [rising, full curve, poor fit].

Take `Cc1c(CN2CCN(C)C(CCO)C2)[nH]c2c(Cl)cccc12` (stereo not drawn): the cell number change worked out at 19.2%. For the same compound, under setting [2], the AC50 was 5.17 µM [rising, full curve].

Turning to `Cc1ccccc1NC(=O)Cn1c(C)nc2ccc(NC(=O)C3CC3)cc2c1=O`, the cell number change is -25.7%. In addition, the AC50 under setting [1] is 2.06 µM [falling, full curve, poor fit].

In the case of `O=C(NCCOc1cccnc1)c1ccc(OC2CCN(Cc3ccccn3)CC2)cc1`, the cell number change came to 2.35%. The AC50 under setting [2] is 0.0058 µM [falling, full curve, poor fit].

Consider `CCOC(=O)c1c(NC(=O)CN2CCC(C)CC2)sc(C)c1C`, for which the cell number change was found to be 108%.

As for `CCOCCCNS(=O)(=O)c1cc(Br)cc2c1N(C(=O)C1CC1)CC2`, the cell number change is 33.1%. Also, the AC50 under setting [1] was 25.9 µM [rising, single point].

For `O=C(c1cccc(OC2CCN(Cc3cc(F)cc(F)c3)CC2)c1)N1CCCC1`, the cell number change is -3.98%.

In the case of `N/C(=N\OC(=O)Cc1ccc(-c2ccccc2)cc1)c1ccncc1`, the cell number change turned out to be 7.26%. Also, the AC50 under setting [2] is 0.103 µM [falling, full curve, poor fit].

Turning to `C/C(Cc1ccccc1)=N\NC(=O)CNC(=O)c1ccccc1Br`, the cell number change was 8.7%. Moreover, the AC50 under setting [2] was 29.1 µM [rising, single point].

Turning to `CS/C(=N\S(=O)(=O)c1ccccc1)c1ccccc1`, the cell number change was -7.26%. Besides, the AC50 under setting [1] is 2.91 µM [rising, single point].

In the case of `COc1ccc(NC(=O)CN(C)C(=O)c2cccc(S(=O)(=O)N3CCCc4ccccc43)c2)cc1`, the AC50 under setting [1] was 6.51 µM [rising, single point].

As for `O=C(Cc1cccs1)N1CCN(c2ccccn2)CC1`, the cell number change is 1.95%.

Turning to `O=C(NC12CC3CC(CC(C3)C1)C2)N1CCC(n2nnc3ccccc32)CC1`, the cell number change came out at 32.6%. Further, the AC50 under setting [1] was 1.84 µM [rising, single point].
